The campaign covered roughly 320,000 compounds. About 2,100 (0.66%) were called active. The shares of active, inactive and inconclusive entries below differ from those in the screen. Calls come from the whole dose curve; as a rule, active = well fitted inhibition curve with a large enough effect in the signal ratio, with a control signal flat (not every such curve was filed as active); inconclusive = small, poorly fitted or top-dose-only effect, or effect the other way, or a change in a side signal; inactive = flat fitted curve, though single readings scatter; the % refers to the signal ratio. Potencies beside an inconclusive call are fits to weak or partial responses and may not hold up.
Assay: qHTS Assay for Lipid Storage Modulators in Drosophila S3 Cells
Details: BODIPY lipid droplet fluorescence, 18-24 h, cells fed with added oleic acid; lipid storage change, negative = inhibition: at 46.1 µM (top of the series) unless noted
Summary of the method: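 Drosophila S3 cells loaded with oleic acid (400 uM, as added) and compounds at several concentrations; lipid droplets imaged by 488-nm laser-scanning cytometry, 500–530 nm intensity and object ratio to cell channel. Percent activity normalized to 20 uM Triacsin C.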
% is set by controls: 0 for no effect and ±100 for the full control effect; potency is the fitted concentration of half-maximal effect.

Row | SMILES | lipid storage change, negative = inhibition | Potency
1 | CC1(c2ccc3ccccc3c2)NC(=O)N(CC(=O)N2CCCC(C(F)(F)F)C2)C1=O (stereo not given) | inconclusive: 2.1% | 
2 | CC(C)(C)c1ccc(C(=O)N2CCN(C(=O)C3CCCCC3)CC2)cc1 |  | inconclusive: 2.59 µM [activator, partial curve]
3 | Cc1cccc(/C(N)=N/OC(=O)c2ccc(F)cc2)c1 | inconclusive: 21.2% | 
4 | COc1ccc(NC(=O)Cn2nnc(C(=O)NCc3ccc(C)cc3)c2N)cc1Cl |  | inconclusive: 0.231 µM [activator, full curve, poor fit]
5 | CC(C)(C)NC(=O)NC(=O)COC(=O)Cn1c(C(F)(F)F)nc2ccccc21 |  | active: 5.17 µM
6 | c1ccc(-c2nnsc2-c2nc3ccccc3[nH]2)cc1 | inconclusive: 2.95% | 
7 | Cc1cc(C)cc(N2C(=O)N(c3ccccc3C)C3CS(=O)(=O)CC32)c1 (stereo not given) | inconclusive: 21.5% | 
8 | CN1CCN(c2c(F)cc3c(=O)c(C(=O)O)cn4c3c2OCN4C)CC1 | inconclusive: -4.57% | 
9 | COc1ccc(OCC(=O)N2CCN(C(=O)c3cccc4ccccc34)CC2)cc1 | inconclusive: -8.32% | 
10 | O=C(NCC1CCCN(Cc2cccc(F)c2)C1)c1cccc2ccccc12 (stereo not given) |  | inconclusive: 20.6 µM [falling, single point]
11 | O=C(NCc1ccccc1)c1cc[n+]([O-])cc1 | inconclusive: 27% | 
12 | NC(=NCc1ccccc1)c1cccc([N+](=O)[O-])c1 |  | inconclusive: 0.116 µM [falling, full curve, poor fit]
13 | CCCNc1cc(C)oc(=O)c1C(=O)CC | inconclusive: 13.8% | 
14 | CCN(CC)CCCN1C(=O)C(=O)/C(=C(/O)c2ccc3c(c2)OCCO3)C1c1ccc(C)o1 (stereo not given) | inconclusive: -38.3% | 
15 | Cc1ccc(S(=O)(=O)CCC(=O)Nc2nc(-c3ccncc3)cs2)cc1 | inconclusive: 1.74% | 
16 | Cc1sc2nc(CN3CCOCC3)nc(NS(=O)(=O)c3cc(Cl)ccc3Cl)c2c1C | inconclusive: 12.8% | 
17 | COc1ccc(OCc2nnc(SC(C)C(=O)Nc3nccs3)n2-c2ccccc2)cc1 (stereo not given) |  | inconclusive: 1.16 µM [activator, single point]
18 | Cc1ccc(NC(=O)CSc2nnc(Cn3cnc4ccccc43)o2)cc1 |  | inconclusive: 18.4 µM [falling, partial curve, poor fit]
19 | COc1ccc(C(C)=O)cc1COC(=O)CCC(=O)N(CC(C)C)c1c(N)n(CC(C)C)c(=O)[nH]c1=O | inconclusive: 17.5% | 
20 | O=C(c1cc(F)ccc1F)C1CCCN(C(=O)CCCN2CCCCC2=O)C1 (stereo not given) |  | inconclusive: 3.66 µM [falling, full curve, poor fit]

Whole records as entered above:
NC(=NCc1ccccc1)c1cccc([N+](=O)[O-])c1 is listed as Potency: inconclusive: 0.116 µM [falling, full curve, poor fit]
COc1ccc(OCC(=O)N2CCN(C(=O)c3cccc4ccccc34)CC2)cc1 is listed as lipid storage change, negative = inhibition: inconclusive: -8.32%

— PubChem BioAssay AID2685 (National Center for Advancing Translational Sciences (NCATS), 2010)
